For experiment [1], the target named is cytosolic kinase domain of FERONIA (FER-KIN) (Arabidopsis thaliana) (UniProt Q9SCZ4). In words: two-hybrid.
Experiment [2] has as its target T1, extracellular domain of FERONIA (FER-ECD) (Arabidopsis thaliana) (UniProt Q9SCZ4).
T1 sequence: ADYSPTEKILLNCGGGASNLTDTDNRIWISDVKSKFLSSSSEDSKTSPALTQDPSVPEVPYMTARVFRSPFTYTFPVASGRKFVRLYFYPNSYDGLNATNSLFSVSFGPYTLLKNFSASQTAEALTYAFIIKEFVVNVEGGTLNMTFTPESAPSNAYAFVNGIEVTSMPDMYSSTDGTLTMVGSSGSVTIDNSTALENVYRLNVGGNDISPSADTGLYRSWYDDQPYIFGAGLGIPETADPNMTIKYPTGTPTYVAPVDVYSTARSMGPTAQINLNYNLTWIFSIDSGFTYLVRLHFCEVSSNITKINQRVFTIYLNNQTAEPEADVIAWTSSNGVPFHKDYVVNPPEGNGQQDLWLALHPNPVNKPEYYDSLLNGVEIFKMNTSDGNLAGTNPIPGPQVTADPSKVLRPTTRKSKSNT
Put plainly: two-hybrid.

Chains of the proteins cited; added tags and fusions are not shown. Lines headed by an entry give the natural chain unless they say otherwise; changes in a name come on top. Residues count along the entry.
UniProt Q9LX66: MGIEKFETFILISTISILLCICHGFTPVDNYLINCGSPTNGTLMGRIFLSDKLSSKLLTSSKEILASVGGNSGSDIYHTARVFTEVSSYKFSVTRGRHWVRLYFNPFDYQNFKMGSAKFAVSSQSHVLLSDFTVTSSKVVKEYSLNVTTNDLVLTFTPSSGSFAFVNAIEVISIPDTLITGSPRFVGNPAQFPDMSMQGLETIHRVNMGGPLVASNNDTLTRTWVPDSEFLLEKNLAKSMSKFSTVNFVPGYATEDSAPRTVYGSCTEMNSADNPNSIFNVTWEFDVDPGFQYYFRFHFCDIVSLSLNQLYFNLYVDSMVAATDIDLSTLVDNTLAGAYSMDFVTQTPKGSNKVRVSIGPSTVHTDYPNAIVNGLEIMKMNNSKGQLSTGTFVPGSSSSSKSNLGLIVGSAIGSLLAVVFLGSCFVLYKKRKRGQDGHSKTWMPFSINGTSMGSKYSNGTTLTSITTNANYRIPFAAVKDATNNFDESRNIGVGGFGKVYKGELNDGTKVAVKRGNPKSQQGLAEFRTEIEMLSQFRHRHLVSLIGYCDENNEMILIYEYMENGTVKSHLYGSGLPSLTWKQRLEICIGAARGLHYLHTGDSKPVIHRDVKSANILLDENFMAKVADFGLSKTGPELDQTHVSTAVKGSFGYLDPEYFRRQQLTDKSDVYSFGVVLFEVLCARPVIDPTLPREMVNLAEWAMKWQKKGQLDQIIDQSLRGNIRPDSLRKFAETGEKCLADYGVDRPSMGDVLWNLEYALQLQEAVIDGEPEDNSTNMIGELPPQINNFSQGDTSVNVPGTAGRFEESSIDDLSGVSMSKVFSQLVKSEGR
HERK1-GFP (pFER::HERK1-GFP) transiently expressed in N. benthamiana: residues 25-830 of Q9LX66

Experiment [3] has as its target extracellular domain of HERK1 (HERK1-ECD) (Arabidopsis thaliana) (UniProt Q9LX66). In words: two-hybrid.
Experiment [4] addresses HERK1-GFP (pFER::HERK1-GFP) transiently expressed in N. benthamiana (Arabidopsis thaliana) (UniProt Q9LX66). In words: co-IP.
The target of experiment [5] is T1, extracellular domain of FERONIA (FER-ECD) (Arabidopsis thaliana). In words: two-hybrid. This is another data set of the same source.
In experiment [6] the target is extracellular domain of HERK1 (HERK1-ECD) (Arabidopsis thaliana) (UniProt Q9LX66). In words: two-hybrid. The source holds these as a separate data set.

Where two headings read alike, the source gives them in different places. These are yes or no findings as the source states them, for the method shown. For part of these data: Binding seen in cells or lysates may run through a third protein. Some binding calls cover weakened binding; strength is not graded here. For part of these data: Tags and fused reporters may be left off the sequences shown.

As for “cytosolic kinase domain of HERK1 (HERK1-KIN) (from UniProt Q9LX66 429-830) (domain or fragment)”, in experiment [1], the binding result was “binds weakly”.

In the case of “extracellular domain of HERK1 (HERK1-ECD) (from UniProt Q9LX66 24-405) (domain or fragment)”, the binding entry in experiment [2] and in experiment [3] was “binds” throughout.

B1: HA-LRE (p35S::HA-LRE) transiently expressed in N. benthamiana (protein, UniProt B3GS44 21-139)
chain: SSISDGVFESQTSVSGRNLRHAKKKCEVNFEYMDYKVLTKRCKGPAFPAKECCSAFKEFACPYVSQINDMNSDCAQTMFSYMNIYGNYPTGLFANECRERKDGLVCPLPPLYSHNLNAS
As for B1, in experiment [4], the binding entry is recorded as “binds”.

B2: extracellular domain of FERONIA (FER-ECD) (domain or fragment, UniProt Q9SCZ4 28-446)
chain: T1 sequence
In the case of B2, the binding entry in experiment [5] and in experiment [6] was “binds” in each case.
